# From ChEMBL document CHEMBL2086222, “Bioassay-guided isolation of prenylated xanthones and polycyclic acylphloroglucinols from the leaves of Garcinia nujiangensis” (J Nat Prod, 2012)
# Tested on: HepG2
# Experiment: Cytotoxicity against human HepG2 cells assessed as reduction in cell viability after 72 hrs by MTT assay
# Format: functional, cell-based
# Conditions: HepG2, 72 h
smiles,measurement,value
CC(=O)O[C@H]1C(=O)[C@@]2(C)[C@H]([C@H](OC(=O)c3ccccc3)[C@]3(O)C[C@H](OC(=O)[C@H](O)[C@@H](NC(=O)c4ccccc4)c4ccccc4)C(C)=C1C3(C)C)[C@]1(OC(C)=O)CO[C@@H]1C[C@@H]2O [PACLITAXEL],IC50,0.44 nM
